log2 fold change data for 34 targets are collected here from the supplement of paper PMC10849652.

Protein sequences, listed by entry. Tags and fused reporters are not part of them. Lines headed by an entry give the natural chain unless they say otherwise; changes in a name come on top.
UniProt Q96K31: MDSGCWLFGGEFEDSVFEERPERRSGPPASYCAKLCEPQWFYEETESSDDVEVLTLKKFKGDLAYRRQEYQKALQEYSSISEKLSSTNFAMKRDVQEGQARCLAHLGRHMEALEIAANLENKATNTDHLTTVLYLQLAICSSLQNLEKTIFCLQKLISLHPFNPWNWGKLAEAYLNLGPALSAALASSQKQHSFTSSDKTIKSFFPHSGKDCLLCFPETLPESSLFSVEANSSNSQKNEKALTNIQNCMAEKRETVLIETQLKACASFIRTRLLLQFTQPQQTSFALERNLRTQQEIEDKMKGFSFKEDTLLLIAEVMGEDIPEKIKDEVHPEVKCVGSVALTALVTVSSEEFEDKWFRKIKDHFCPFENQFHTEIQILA
UniProt O43852: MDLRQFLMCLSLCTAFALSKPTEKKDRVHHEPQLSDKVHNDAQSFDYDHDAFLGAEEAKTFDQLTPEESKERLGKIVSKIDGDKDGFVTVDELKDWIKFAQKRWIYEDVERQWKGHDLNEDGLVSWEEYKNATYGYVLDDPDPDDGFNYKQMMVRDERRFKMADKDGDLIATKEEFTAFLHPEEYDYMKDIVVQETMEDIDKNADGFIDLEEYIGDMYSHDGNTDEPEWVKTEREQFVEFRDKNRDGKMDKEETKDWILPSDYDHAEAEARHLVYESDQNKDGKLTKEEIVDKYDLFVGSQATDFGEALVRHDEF
UniProt Q9H3H3: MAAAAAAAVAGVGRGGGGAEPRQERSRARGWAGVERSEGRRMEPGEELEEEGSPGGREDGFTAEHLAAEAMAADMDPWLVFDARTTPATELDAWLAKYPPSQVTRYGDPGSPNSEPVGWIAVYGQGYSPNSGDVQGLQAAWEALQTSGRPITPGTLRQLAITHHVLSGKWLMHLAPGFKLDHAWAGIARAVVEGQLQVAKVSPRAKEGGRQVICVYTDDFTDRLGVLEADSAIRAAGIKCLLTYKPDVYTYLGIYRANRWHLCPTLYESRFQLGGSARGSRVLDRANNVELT
UniProt Q8TCD1: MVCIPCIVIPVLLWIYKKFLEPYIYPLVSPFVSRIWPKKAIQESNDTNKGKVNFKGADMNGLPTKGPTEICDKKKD
UniProt Q9NS00: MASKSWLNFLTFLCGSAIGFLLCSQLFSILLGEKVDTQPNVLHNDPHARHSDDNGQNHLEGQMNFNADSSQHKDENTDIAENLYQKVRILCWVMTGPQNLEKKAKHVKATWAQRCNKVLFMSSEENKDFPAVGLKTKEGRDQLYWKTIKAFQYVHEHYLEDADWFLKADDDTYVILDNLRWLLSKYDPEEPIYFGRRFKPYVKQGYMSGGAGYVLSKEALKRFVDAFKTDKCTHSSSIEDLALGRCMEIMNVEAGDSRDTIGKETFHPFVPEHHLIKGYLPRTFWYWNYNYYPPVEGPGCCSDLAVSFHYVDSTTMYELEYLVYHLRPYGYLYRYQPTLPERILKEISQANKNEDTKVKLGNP
UniProt Q9BSJ5: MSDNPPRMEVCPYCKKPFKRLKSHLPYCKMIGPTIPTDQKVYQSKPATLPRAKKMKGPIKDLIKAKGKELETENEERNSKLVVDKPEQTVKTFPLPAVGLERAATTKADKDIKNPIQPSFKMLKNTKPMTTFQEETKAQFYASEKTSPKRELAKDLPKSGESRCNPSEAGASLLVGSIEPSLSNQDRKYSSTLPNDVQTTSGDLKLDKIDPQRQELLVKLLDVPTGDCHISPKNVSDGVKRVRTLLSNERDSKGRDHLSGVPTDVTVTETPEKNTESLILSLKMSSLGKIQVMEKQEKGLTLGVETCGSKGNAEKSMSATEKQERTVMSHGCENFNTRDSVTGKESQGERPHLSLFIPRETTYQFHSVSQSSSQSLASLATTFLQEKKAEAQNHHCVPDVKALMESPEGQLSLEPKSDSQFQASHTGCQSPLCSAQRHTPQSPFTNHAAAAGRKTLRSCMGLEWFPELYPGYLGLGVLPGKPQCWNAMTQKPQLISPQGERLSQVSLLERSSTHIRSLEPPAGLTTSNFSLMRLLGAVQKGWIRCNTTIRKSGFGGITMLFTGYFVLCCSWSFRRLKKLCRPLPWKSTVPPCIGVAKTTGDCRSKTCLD
UniProt Q9Y376: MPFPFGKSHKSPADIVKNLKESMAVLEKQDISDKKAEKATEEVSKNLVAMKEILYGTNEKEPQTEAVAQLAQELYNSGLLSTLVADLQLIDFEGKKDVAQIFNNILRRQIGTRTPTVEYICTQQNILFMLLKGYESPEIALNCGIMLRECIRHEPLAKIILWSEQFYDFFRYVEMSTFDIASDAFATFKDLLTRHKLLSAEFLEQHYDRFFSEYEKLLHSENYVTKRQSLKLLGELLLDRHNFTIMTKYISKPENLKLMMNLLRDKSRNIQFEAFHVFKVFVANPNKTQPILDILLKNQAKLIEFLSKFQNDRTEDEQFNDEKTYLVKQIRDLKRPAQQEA
UniProt O60566, whole entry, looked up: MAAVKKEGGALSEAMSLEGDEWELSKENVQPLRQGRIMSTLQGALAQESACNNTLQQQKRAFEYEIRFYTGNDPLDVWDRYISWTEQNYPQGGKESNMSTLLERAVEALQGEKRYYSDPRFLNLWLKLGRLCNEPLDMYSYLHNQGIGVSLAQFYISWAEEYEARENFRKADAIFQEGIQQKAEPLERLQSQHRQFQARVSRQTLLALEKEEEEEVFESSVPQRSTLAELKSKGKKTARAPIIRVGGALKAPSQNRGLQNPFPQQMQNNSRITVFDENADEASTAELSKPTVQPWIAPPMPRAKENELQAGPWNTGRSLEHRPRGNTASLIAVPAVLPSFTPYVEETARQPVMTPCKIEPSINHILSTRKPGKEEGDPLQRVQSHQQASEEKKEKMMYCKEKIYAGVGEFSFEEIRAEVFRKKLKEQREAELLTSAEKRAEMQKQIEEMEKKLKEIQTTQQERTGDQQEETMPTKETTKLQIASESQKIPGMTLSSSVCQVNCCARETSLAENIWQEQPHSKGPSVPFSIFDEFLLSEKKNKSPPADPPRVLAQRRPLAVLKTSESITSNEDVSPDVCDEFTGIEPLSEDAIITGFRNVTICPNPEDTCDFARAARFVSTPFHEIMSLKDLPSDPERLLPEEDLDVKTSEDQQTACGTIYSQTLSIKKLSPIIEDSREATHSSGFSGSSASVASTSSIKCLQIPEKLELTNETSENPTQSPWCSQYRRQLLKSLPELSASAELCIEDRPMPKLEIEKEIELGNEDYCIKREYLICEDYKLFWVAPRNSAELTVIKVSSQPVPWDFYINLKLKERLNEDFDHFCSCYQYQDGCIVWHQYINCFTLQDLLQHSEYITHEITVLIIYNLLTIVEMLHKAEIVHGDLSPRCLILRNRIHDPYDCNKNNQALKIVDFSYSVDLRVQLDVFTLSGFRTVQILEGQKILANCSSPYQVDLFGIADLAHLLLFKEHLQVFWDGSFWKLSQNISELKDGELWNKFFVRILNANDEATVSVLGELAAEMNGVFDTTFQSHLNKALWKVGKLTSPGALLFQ
UniProt P05937: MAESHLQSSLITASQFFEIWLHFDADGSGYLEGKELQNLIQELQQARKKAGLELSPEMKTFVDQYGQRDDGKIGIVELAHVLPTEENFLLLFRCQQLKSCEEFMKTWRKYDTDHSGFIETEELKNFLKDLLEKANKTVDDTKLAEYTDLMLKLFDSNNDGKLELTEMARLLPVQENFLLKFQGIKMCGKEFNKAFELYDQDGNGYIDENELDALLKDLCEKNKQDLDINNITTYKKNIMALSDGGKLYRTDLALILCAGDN
UniProt Q13901: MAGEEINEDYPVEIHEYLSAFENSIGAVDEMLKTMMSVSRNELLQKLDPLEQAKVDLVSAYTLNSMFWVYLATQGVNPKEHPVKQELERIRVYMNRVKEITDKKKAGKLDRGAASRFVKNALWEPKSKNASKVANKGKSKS
UniProt Q96GQ5: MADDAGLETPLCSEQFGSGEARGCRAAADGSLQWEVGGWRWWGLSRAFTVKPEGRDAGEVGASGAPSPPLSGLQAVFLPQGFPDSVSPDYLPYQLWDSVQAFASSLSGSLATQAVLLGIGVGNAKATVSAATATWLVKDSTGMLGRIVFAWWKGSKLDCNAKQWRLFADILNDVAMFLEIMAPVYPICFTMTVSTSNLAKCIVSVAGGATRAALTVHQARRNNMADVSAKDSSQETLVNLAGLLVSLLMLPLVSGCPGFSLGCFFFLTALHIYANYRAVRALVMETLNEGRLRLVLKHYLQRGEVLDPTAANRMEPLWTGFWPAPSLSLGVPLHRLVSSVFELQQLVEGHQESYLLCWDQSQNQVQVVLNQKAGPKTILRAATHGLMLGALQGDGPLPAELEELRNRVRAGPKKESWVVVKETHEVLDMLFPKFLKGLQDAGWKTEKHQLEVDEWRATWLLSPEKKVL
UniProt P47756, whole entry, looked up: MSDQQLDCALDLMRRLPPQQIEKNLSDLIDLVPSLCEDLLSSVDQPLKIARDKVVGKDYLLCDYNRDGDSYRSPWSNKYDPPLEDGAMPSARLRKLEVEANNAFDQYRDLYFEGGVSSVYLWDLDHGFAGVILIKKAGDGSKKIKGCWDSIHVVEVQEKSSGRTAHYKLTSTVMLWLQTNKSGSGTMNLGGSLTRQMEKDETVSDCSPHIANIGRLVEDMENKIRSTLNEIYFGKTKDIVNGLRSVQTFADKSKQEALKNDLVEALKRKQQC
UniProt Q9Y2G2: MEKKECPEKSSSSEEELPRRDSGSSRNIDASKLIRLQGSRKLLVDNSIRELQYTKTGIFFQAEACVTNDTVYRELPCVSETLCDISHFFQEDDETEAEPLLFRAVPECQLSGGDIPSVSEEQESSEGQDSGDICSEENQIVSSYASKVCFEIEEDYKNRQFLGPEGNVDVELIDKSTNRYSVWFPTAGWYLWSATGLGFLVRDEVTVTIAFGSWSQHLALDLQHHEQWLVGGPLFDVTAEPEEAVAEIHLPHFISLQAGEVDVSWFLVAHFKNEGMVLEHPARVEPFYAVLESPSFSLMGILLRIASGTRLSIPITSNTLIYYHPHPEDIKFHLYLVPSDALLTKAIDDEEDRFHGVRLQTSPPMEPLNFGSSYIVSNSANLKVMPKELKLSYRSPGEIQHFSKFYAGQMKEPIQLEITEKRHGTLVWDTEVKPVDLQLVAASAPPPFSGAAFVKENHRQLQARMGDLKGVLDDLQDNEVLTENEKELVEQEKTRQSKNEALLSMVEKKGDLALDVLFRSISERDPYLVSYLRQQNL
UniProt Q9P1Z2: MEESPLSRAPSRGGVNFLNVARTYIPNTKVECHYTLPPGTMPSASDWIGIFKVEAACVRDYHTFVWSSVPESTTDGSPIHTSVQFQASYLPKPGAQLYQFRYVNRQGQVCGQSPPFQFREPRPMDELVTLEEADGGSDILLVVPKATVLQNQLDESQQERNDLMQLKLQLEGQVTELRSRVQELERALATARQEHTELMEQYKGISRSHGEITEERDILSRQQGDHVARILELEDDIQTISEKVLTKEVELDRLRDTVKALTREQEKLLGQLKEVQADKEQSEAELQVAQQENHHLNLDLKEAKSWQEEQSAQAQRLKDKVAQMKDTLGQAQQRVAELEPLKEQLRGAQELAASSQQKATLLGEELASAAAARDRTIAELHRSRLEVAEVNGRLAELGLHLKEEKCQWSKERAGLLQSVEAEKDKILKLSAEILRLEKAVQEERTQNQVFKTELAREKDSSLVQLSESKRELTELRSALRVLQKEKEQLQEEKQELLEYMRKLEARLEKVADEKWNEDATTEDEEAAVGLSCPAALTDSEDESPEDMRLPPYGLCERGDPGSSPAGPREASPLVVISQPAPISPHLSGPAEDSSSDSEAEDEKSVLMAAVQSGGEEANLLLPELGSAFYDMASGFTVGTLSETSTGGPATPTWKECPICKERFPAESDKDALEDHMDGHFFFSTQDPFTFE
UniProt Q96LW7: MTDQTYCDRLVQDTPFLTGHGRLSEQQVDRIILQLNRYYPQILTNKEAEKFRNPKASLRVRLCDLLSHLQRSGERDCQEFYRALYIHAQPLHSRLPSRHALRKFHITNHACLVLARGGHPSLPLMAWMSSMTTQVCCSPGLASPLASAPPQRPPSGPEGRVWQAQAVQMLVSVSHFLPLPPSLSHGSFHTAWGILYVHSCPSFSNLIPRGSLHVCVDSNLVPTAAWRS
UniProt Q7KYR7: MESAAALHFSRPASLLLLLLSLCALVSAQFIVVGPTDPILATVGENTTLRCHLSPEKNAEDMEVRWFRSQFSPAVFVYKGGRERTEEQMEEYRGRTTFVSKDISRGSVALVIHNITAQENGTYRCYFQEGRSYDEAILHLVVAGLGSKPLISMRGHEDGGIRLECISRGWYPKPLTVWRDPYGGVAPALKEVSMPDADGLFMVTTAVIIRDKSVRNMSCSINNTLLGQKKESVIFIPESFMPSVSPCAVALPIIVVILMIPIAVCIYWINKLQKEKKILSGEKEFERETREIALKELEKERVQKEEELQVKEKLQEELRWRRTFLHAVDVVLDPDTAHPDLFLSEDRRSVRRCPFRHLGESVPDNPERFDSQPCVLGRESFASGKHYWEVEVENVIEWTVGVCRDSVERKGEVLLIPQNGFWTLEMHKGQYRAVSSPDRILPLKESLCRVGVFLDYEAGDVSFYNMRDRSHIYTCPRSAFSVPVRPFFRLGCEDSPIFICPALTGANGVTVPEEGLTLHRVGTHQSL

The other results are listed elsewhere or left out.

Compound in the first assay: Nc1ccccc1NC(=O)c1ccc(CNC(=O)OCc2cccnc2)cc1 [entinostat]
The experiment in a line: log2 fold change, soluble protein after heating vs DMSO (PISA); higher = thermal stabilisation; K562 cells, 10 uM, 30 min; active = over 0.2 and 3.5 SD of the protein, either way, in both replicates (recomputed). The gist of the method: (§1)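 K562 cells (2×10^6 cells/mL) were treated with 10 μM compound for 30 min, and aliquots were heated for 3 min over 48°C-58°C. Pooled aliquots were extracted in PBS with 0.5% NP-40 at 4°C, and the supernatant after 21,000xg for 90 min was measured by TMTpro 16plex LC-MS/MS with channel sums equalised. Reported thermal stability, relative to control samples and from duplicates, is a log2 fold change.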
Regarding C8orf76 (UniProt Q96K31), the log2 fold change was inactive: -0.024.
For C6orf89 isoform 2 (UniProt Q6UWU4), the log2 fold change is inactive: -0.036.
On to CALU isoform 4 (UniProt O43852), for which the log2 fold change was inactive: -0.019.
C1GALT1C1 (UniProt Q96EU7): the log2 fold change is inactive: -0.026.
On to C9orf40 (UniProt Q8IXQ3), for which the log2 fold change is inactive: 0.017.
As for CAPRIN1 (UniProt Q14444), the log2 fold change was inactive: -0.066.
Same read-out and setting: under C11orf68 (UniProt Q9H3H3) stands inactive: -0.015.
As for CACTIN isoform 2 (UniProt Q8WUQ7), the log2 fold change was inactive: 0.006.
As to C18orf32 (UniProt Q8TCD1), the log2 fold change was inactive: 0.018.
On the same count and under the same terms, under C1GALT1 (UniProt Q9NS00) stands inactive: -0.016; under C17orf80 (UniProt Q9BSJ5), inactive: 0.065.
On to CANX isoform 2 (UniProt P27824), for which the log2 fold change is inactive: 0.058.
On the same count and under the same terms, under C4BPA (UniProt P04003) stands inactive: -0.276.
Same read-out and setting: under C12orf29 (UniProt Q8N999) stands inactive: -0.034; under CAB39 (UniProt Q9Y376), inactive: -0.024.
As for BTRC (UniProt Q9Y297), the log2 fold change is inactive: 0.001.
As to BUB1B isoform 3 (UniProt O60566), the log2 fold change was inactive: 0.068.
The same measure, in the same setting: under C12orf73 (UniProt Q69YU5) stands inactive: 0.03; under C9orf78 (UniProt Q9NZ63), inactive: -0.008; under C1orf52 (UniProt Q8N6N3), inactive: 0.001.
Turning to CAD (UniProt P27708), the log2 fold change was inactive: -0.026.
In the case of CA13 (UniProt Q8N1Q1), the log2 fold change is inactive: 0.016.
Take CALB1 (UniProt P05937): the log2 fold change was inactive: 0.022.
Turning to C1D (UniProt Q13901), the log2 fold change is inactive: -0.012.
As for C16orf58 (UniProt Q96GQ5), the log2 fold change is inactive: 0.001.
Regarding C9orf72 (UniProt Q96LT7), the log2 fold change is inactive: -0.011.
In the case of C19orf53 (UniProt Q9UNZ5), the log2 fold change is inactive: -0.026.
In the case of CAPZB isoform 2 (UniProt P47756), the log2 fold change was inactive: -0.022.
On to C7 (UniProt P10643), for which the log2 fold change is inactive: -0.284.
As for C18orf25 isoform 2 (UniProt Q96B23), the log2 fold change is inactive: -0.013.
Take CARD8 isoform 5 (UniProt Q9Y2G2): the log2 fold change was inactive: 0.038.

Compound in another assay: O=C(CCCCCCC(=O)Nc1ccccc1)NO [vorinostat]
The assay is described as above. Put shortly: as §1
For the target C8orf76 (UniProt Q96K31), the log2 fold change was inactive: 0.061.
Take C6orf89 isoform 2 (UniProt Q6UWU4): the log2 fold change is inactive: -0.017.
Still for that read-out and setting: under CALCOCO1 (UniProt Q9P1Z2) stands inactive: 0.075; under CALU isoform 4 (UniProt O43852), inactive: -0.034.
The same measure, in the same setting: under C1GALT1C1 (UniProt Q96EU7) stands inactive: -0.042; under C9orf40 (UniProt Q8IXQ3), inactive: 0.033.
Turning to CAPRIN1 (UniProt Q14444), the log2 fold change is inactive: -0.018.
Regarding C11orf68 (UniProt Q9H3H3), the log2 fold change is inactive: 0.024.
With CACTIN isoform 2 (UniProt Q8WUQ7), the log2 fold change was inactive: -0.021.
Take C18orf32 (UniProt Q8TCD1): the log2 fold change is inactive: -0.171.
In the case of C1GALT1 (UniProt Q9NS00), the log2 fold change is inactive: -0.136.
Regarding CARD19 isoform 2 (UniProt Q96LW7), the log2 fold change was inactive: 0.009.
The same measure, in the same setting: under C17orf80 (UniProt Q9BSJ5) stands inactive: -0.068; under CANX isoform 2 (UniProt P27824), inactive: -0.046.
In the case of C4BPA (UniProt P04003), the log2 fold change was inactive: -0.092.
With C12orf29 (UniProt Q8N999), the log2 fold change is inactive: -0.036.
Consider CAB39 (UniProt Q9Y376), for which the log2 fold change was inactive: -0.008.
On the same count and under the same terms, under BTRC (UniProt Q9Y297) stands inactive: 0.098; under BUB1B isoform 3 (UniProt O60566), inactive: 0.124; under BTN2A1 (UniProt Q7KYR7), inactive: -0.144.
C12orf73 (UniProt Q69YU5): the log2 fold change is inactive: -0.329.
Same read-out and setting: under C9orf78 (UniProt Q9NZ63) stands inactive: -0.062.
Regarding C1orf52 (UniProt Q8N6N3), the log2 fold change is inactive: -0.079.
The same measure, in the same setting: under CAD (UniProt P27708) stands inactive: 0.088.
Same read-out and setting: under CA13 (UniProt Q8N1Q1) stands inactive: -0.066; under CALB1 (UniProt P05937), inactive: -0.027.
Same read-out and setting: under C1D (UniProt Q13901) stands inactive: 0.116; under C16orf58 (UniProt Q96GQ5), inactive: 0.026.
As to C9orf72 (UniProt Q96LT7), the log2 fold change was inactive: 0.232.
Regarding C19orf53 (UniProt Q9UNZ5), the log2 fold change is inactive: -0.051.
CAPZB isoform 2 (UniProt P47756): the log2 fold change was inactive: -0.027.
Still for that read-out and setting: under C7 (UniProt P10643) stands inactive: 0.025; under C18orf25 isoform 2 (UniProt Q96B23), inactive: 0.249.
In the case of CARD8 isoform 5 (UniProt Q9Y2G2), the log2 fold change is inactive: -0.006.
